The supplement of paper PMC10849652
The other results are listed elsewhere or left out. Residues, ends and D or L forms follow the SMILES beside them. *: point of attachment. Cbz = O=C(OCc1ccccc1)*

Chains of the proteins cited; added tags and fusions are not shown. Lines headed by an entry give the natural chain unless they say otherwise; changes in a name come on top.
UniProt Q5T4S7, whole entry, looked up: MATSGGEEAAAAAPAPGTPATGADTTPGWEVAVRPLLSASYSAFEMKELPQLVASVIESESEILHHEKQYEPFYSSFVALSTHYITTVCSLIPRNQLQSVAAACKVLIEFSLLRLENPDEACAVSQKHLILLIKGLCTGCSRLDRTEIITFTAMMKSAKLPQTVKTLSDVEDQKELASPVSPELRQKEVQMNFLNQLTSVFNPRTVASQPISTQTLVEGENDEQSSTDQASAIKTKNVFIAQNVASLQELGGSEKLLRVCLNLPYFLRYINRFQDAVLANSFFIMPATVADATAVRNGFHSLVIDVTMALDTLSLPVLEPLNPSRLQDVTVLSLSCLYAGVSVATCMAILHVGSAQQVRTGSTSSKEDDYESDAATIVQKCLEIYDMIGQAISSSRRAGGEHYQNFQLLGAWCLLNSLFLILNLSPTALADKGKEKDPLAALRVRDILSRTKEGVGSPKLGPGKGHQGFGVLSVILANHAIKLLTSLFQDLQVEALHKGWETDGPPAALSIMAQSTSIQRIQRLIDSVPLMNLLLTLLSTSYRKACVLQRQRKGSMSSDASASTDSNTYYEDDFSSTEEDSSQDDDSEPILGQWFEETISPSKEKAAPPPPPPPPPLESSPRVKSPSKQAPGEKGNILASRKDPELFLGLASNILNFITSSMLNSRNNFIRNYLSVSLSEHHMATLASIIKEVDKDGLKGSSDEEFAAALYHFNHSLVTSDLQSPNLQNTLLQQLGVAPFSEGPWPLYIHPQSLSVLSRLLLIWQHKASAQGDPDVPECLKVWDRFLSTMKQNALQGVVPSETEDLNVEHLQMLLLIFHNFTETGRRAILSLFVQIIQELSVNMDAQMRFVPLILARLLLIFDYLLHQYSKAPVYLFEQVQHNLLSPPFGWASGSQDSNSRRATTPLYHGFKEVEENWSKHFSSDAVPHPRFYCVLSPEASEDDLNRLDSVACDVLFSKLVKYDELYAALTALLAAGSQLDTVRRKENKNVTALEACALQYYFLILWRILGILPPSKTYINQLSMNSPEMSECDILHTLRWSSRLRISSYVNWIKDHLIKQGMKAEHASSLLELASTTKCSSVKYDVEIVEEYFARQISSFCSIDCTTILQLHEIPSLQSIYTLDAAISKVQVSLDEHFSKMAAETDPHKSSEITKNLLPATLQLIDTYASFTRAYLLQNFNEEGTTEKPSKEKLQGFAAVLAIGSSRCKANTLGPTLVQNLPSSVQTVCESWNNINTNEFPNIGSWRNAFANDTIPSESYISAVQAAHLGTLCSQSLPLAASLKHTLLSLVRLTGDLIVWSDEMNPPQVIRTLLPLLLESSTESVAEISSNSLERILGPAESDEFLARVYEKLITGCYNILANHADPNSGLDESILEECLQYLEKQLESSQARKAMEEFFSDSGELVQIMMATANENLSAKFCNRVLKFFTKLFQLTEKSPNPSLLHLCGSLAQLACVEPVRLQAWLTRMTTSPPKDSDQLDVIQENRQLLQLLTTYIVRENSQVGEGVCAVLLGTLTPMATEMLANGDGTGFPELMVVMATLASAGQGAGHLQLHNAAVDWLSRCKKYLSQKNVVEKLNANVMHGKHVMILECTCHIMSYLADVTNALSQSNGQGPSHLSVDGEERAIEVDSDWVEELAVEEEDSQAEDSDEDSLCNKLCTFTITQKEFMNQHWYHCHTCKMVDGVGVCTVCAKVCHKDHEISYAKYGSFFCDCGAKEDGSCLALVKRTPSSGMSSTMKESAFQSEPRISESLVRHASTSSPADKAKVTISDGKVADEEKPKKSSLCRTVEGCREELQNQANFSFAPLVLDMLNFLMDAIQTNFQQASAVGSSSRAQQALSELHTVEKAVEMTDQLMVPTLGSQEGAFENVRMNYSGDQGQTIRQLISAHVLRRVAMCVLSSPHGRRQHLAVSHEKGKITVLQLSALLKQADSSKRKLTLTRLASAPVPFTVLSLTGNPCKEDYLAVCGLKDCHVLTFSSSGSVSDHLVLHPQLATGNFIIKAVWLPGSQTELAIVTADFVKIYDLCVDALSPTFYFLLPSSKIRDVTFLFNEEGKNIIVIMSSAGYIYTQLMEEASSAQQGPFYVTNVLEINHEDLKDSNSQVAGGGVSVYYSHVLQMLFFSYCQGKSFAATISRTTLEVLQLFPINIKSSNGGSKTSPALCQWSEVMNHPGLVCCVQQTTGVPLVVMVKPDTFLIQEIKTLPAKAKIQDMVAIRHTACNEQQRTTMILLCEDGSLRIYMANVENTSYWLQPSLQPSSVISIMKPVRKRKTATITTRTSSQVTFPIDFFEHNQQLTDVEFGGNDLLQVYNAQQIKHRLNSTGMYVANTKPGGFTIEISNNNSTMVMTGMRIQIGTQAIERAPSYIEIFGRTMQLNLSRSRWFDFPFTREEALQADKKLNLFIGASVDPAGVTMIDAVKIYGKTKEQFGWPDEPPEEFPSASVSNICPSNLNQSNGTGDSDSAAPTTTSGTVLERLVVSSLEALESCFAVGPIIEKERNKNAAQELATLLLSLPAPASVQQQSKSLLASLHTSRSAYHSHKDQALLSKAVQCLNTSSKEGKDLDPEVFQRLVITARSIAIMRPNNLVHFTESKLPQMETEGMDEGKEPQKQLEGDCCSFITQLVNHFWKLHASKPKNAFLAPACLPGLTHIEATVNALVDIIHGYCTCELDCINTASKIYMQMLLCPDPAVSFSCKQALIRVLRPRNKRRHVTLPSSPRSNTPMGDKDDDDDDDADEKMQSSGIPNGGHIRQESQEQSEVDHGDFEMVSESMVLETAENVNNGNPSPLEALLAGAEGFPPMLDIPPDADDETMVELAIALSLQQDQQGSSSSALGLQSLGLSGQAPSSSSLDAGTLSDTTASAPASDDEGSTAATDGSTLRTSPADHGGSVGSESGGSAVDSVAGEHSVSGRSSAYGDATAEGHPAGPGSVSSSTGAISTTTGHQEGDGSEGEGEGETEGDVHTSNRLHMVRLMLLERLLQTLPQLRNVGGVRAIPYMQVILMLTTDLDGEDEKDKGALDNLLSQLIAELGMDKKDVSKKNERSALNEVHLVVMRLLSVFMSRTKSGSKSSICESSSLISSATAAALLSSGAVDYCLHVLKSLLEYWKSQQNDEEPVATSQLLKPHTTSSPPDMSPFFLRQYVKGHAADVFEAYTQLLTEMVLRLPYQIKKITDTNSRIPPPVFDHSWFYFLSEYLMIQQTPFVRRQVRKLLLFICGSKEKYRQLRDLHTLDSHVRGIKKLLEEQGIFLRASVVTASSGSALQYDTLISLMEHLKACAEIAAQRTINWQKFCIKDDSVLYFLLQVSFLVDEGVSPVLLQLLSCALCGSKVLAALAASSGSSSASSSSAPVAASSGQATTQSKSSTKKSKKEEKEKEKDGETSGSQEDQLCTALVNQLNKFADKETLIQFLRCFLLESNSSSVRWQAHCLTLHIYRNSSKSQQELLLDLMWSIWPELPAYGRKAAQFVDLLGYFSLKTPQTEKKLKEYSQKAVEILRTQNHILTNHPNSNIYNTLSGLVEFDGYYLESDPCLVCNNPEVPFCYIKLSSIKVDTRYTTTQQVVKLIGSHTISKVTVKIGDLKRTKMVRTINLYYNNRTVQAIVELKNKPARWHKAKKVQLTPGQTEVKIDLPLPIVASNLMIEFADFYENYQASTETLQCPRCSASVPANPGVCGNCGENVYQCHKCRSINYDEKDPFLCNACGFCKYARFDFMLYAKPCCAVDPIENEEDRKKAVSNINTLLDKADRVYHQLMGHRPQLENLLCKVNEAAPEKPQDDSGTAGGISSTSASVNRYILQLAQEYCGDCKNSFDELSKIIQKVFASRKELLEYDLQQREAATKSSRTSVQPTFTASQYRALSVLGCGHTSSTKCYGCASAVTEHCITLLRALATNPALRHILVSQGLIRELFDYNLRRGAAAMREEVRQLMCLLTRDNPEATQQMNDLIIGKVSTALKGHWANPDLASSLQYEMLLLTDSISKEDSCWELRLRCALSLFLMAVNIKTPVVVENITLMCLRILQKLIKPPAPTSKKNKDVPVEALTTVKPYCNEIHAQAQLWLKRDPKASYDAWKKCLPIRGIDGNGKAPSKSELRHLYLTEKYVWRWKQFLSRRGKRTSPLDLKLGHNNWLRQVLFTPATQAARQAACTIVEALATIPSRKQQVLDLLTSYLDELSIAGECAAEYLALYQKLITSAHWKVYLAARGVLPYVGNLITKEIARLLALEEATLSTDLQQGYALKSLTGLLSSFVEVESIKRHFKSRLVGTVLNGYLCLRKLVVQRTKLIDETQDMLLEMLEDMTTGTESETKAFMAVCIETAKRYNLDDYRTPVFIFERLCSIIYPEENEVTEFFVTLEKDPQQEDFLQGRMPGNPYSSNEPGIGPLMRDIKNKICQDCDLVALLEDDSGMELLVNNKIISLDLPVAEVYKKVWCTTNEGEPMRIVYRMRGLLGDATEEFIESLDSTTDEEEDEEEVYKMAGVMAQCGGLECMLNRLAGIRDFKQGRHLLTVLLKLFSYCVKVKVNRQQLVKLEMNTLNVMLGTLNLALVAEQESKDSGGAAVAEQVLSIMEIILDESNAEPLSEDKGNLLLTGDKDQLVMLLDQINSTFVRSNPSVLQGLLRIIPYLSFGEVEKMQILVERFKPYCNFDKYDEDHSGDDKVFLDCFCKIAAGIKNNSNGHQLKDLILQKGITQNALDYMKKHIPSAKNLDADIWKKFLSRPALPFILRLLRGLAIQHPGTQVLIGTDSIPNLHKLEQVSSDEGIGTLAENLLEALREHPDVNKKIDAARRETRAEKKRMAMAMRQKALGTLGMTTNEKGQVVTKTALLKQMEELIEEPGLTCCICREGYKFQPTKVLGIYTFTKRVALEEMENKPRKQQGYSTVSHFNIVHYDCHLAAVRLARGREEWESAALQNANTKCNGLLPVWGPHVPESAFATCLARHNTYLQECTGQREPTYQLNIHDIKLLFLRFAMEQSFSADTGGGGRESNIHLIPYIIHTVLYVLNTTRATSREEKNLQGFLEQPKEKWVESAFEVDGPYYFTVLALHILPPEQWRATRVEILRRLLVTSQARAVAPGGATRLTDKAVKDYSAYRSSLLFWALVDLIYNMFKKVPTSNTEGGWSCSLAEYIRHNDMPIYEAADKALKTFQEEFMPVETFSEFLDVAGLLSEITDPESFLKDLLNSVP
UniProt Q9BZL1: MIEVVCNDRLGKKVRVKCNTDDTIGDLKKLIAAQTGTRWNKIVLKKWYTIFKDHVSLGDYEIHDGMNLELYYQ
UniProt Q9NZ43: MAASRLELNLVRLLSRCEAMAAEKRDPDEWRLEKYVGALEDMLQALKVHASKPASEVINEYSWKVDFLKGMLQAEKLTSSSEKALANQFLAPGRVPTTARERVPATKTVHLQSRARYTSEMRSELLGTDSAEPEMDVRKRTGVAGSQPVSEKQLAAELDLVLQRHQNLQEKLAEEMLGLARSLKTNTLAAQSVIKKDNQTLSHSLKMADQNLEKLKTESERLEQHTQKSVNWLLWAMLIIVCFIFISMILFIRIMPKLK
UniProt P14927: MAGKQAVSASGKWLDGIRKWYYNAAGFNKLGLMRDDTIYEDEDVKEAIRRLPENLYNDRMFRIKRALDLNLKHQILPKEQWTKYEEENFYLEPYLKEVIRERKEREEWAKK
UniProt Q8TCY9: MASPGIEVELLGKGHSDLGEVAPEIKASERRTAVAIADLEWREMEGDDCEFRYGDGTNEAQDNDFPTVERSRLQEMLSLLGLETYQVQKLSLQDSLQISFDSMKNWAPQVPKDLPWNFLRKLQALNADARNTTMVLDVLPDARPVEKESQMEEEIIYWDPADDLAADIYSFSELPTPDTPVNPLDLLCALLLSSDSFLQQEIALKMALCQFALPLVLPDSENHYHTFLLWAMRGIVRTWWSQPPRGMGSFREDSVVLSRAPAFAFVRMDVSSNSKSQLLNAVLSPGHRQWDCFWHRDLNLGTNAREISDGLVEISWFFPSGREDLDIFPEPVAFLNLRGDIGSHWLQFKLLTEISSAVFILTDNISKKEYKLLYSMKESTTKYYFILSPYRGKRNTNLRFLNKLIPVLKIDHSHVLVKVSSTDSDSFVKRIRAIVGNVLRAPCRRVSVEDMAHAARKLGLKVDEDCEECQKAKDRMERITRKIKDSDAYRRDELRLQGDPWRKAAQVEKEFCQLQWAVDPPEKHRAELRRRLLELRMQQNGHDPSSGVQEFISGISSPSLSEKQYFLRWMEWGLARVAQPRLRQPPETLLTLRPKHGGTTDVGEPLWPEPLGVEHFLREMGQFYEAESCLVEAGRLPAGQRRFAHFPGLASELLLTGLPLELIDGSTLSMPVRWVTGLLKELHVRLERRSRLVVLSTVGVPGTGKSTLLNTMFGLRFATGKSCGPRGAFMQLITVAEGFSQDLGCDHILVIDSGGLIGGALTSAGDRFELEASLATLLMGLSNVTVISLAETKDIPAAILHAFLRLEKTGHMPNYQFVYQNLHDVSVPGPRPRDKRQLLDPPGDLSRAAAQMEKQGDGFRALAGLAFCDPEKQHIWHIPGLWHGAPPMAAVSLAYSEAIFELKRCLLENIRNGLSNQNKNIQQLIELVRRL

What was measured:
Assay in all cases: log2 fold change, soluble protein after heating vs DMSO (PISA); higher = thermal stabilisation; K562 cells, 10 uM, 30 min; active = over 0.2 and 3.5 SD of the protein, either way, in both replicates (recomputed)
erlotinib = compound: C#Cc1cccc(Nc2ncnc3cc(OCCOC)c(OCCOC)cc23)c1 [erlotinib]
How it was run: (§1)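 For each measurement, 10 μM compound was applied for 30 min to K562 cells at 2×10^6 cells/mL. Aliquots were heated for 3 min across 48°C-58°C, pooled, and extracted in PBS with 0.5% NP-40 at 4°C; the supernatant after 21,000xg for 90 min was soluble protein. This was quantified by TMTpro 16plex LC-MS/MS with channel sums equalised, and thermal stability was reported relative to control samples from duplicates, on a log2 fold-change scale.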

[1] = compound: C/C(=N\NC(=O)C1=CC(=CC=C1)S(=O)(=O)N2CCOCC2)/C3=C(C=CC(=C3)Cl)O
How it was run: as §1

[2] = compound: C1=CC(=C(C=C1Cl)C2=NC3=NC=CN=C3C(=N2)NC4=CC=NC=C4)F
How it was run: as §1

[3] = compound: C1=CC(=CC=C1C2=NC3=C(N2)C=C(C=C3)C(=O)N)OC4=CC=C(C=C4)Cl
How it was run: as §1

[4] = compound: C1=CC2=C(C=CC(=C2)/C=C\3/C(=O)NC(=NCC4=CC=CS4)S3)N=C1
How it was run: as §1

[5] = compound: C1=CC2=NC=CN=C2C=C1/C=C/3\C(=O)NC(=O)S3
How it was run: as §1

[6] = compound: C1=CC=C(C=C1)C2=NC(=C(N2)C3=CC=NC=C3)C4=CC(=C(C=C4)Cl)O
How it was run: as §1

[7] = compound: C1=CC=C2C(=C1)C3=NNC4=CC=CC(=C43)C2=O
How it was run: as §1

[8] = compound: C1CCN(C1)C(=O)NC2=CC=CC(=C2)NC3=NC=C(C(=N3)NCCC4=CN=CN4)Br
How it was run: as §1

[9] = compound: C1CN(CCC1(CC2=CC=C(C=C2)Cl)N)C3=NC=NC4=C3C=CN4
How it was run: as §1

IRAK-1-4 Inhibitor I = compound: C1COCCN1CCN2C3=CC=CC=C3N=C2NC(=O)C4=CC(=CC=C4)[N+](=O)[O-] [IRAK-1-4 Inhibitor I]
How it was run: as §1

ibrutinib = compound: C=CC(=O)N1CCC[C@@H](n2nc(-c3ccc(Oc4ccccc4)cc3)c3c(N)ncnc32)C1 [ibrutinib]
How it was run: as §1

[10] = compound: CC(=O)c1cnc2ccc(-c3cc(Cl)c(O)c(Cl)c3)nc2c1N[C@H]1CC[C@H](CN(C)C)CC1
How it was run: as §1

ralimetinib = compound: CC(C)(C)Cn1c(N)nc2ccc(-c3[nH]c(C(C)(C)C)nc3-c3ccc(F)cc3)nc21 [ralimetinib]
How it was run: as §1

[11] = compound: CC(C)(O)CC(=O)NCCn1ccc2ncnc(Nc3ccc(Oc4cccc(C(F)(F)F)c4)c(Cl)c3)c21
How it was run: as §1

[12] = compound: CC(C)C1=C2N=C(C=C(N2N=C1)NCC3=CC=CC=C3)NCCCCCCN
How it was run: as §1

[13] = compound: CC(C)C[C@@H](C=O)NC(=O)[C@H](CC(C)C)NC(=O)[C@H](CC(C)C)NC(=O)OCc1ccccc1
How it was run: as §1

pinometostat = compound: CC(C)N(C[C@H]1O[C@@H](n2cnc3c(N)ncnc32)[C@H](O)[C@@H]1O)[C@H]1C[C@@H](CCc2nc3cc(C(C)(C)C)ccc3[nH]2)C1 [pinometostat]
How it was run: as §1

[14] = compound: CC1=C(C(CC(=O)N1)C2=CC=C(C=C2)C(F)(F)F)C(=O)NC3=C(C=C4C(=C3)C=NN4)F
How it was run: as §1

[15] = compound: CC1=C(C2=C(C=C1)C(=O)C3=CC=CC=C3N2CCCN)C
How it was run: as §1

Measured: log2 fold change

USP5 (UniProt P45974)
inactive: erlotinib 0.002 | [1] 0.035 | [2] 0.037 | [3] -0.008 | [4] 0.012 | [5] 0.011 | [6] 0.014 | [7] 0.016 | [8] 0.012 | [9] 0.012 | IRAK-1-4 Inhibitor I 0.016 | ibrutinib -0.018 | [10] -0.025 | ralimetinib -0.053 | [11] 0.002 | [12] 0.008 | [13] -0.015 | pinometostat -0.016 | [14] -0.003 | [15] -0.069

UBR4 isoform 2 (UniProt Q5T4S7)
inactive: erlotinib -0.05 | [1] 0.016 | [2] -0.051 | [3] -0.021 | [4] -0.002 | [5] -0.001 | [6] 0.041 | [7] 0.019 | [8] -0.015 | [9] -0.095 | IRAK-1-4 Inhibitor I -0.064 | ibrutinib -0.038 | [10] 0.049 | ralimetinib 0.089 | [11] 0 | [12] -0.158 | [13] 0.056 | pinometostat 0.138 | [14] 0.017 | [15] 0.025

VAC14 (UniProt Q08AM6)
inactive: erlotinib -0.001 | [1] -0.008 | [2] 0.033 | [3] 0.033 | [4] 0.018 | [5] 0.05 | [6] -0.012 | [7] 0.003 | [8] -0.007 | [9] 0.003 | IRAK-1-4 Inhibitor I 0.057 | ibrutinib -0.009 | [10] 0.025 | ralimetinib -0.037 | [11] -0.034 | [12] -0.089 | [13] -0.04 | pinometostat -0.001 | [14] 0.009 | [15] 0.043

VAPA isoform 2 (UniProt Q9P0L0)
inactive: erlotinib 0.021 | [1] -0.051 | [2] -0.018 | [3] -0.064 | [4] -0.014 | [5] 0.023 | [6] -0.014 | [7] -0.015 | [8] -0.005 | [9] 0.042 | IRAK-1-4 Inhibitor I 0.002 | ibrutinib 0.005 | [10] 0.017 | ralimetinib -0.048 | [11] 0.061 | [12] 0.037 | [13] -0.016 | pinometostat -0.048 | [14] 0.024 | [15] 0

UBL5 (UniProt Q9BZL1)
inactive: erlotinib -0.069 | [1] 0.048 | [2] 0.084 | [3] 0.044 | [4] -0.096 | [5] 0.04 | [6] -0.072 | [7] -0.004 | [8] 0.012 | [9] -0.009 | IRAK-1-4 Inhibitor I -0.03 | ibrutinib 0.023 | [10] 0.013 | ralimetinib 0.045 | [11] -0.001 | [12] -0.033 | [13] 0.069 | pinometostat 0.032 | [14] -0.037 | [15] -0.105

VANGL1 (UniProt Q8TAA9)
inactive: erlotinib 0.022 | [1] -0.136 | [2] -0.2 | [3] 0.052 | [4] 0.08 | [5] 0.031 | [6] -0.006 | [7] -0.087 | [8] -0.106 | [9] 0.104 | IRAK-1-4 Inhibitor I -0.038 | ibrutinib 0.022 | [10] -0.12 | ralimetinib 0.041 | [11] 0.041 | [12] 0.068 | [13] 0.076 | pinometostat 0.066 | [14] 0.078 | [15] -0.053

VAT1 (UniProt Q99536)
inactive: erlotinib -0.003 | [1] 0.013 | [2] 0.02 | [3] -0.019 | [4] 0.055 | [5] -0.013 | [6] 0.064 | [7] -0.038 | [8] 0.008 | [9] 0.064 | IRAK-1-4 Inhibitor I 0.021 | ibrutinib 0.071 | [10] -0.035 | ralimetinib -0.013 | [11] 0.081 | [12] 0.107 | [13] -0.028 | pinometostat -0.058 | [14] -0.012 | [15] -0.003

USE1 (UniProt Q9NZ43)
inactive: erlotinib 0.018 | [1] 0 | [2] 0.005 | [3] 0.078 | [4] 0.062 | [5] 0 | [6] 0.037 | [7] -0.052 | [8] 0.003 | [9] 0.052 | IRAK-1-4 Inhibitor I -0.055 | ibrutinib 0.017 | [10] -0.043 | ralimetinib 0.061 | [11] -0.084 | [12] 0.016 | [13] 0.035 | pinometostat 0.036 | [14] 0.02 | [15] 0.011

UQCC2 (UniProt Q9BRT2)
inactive: erlotinib 0.016 | [1] 0.001 | [2] 0.043 | [3] 0.008 | [4] 0.121 | [5] 0.024 | [6] -0.134 | [7] 0.045 | [8] -0.15 | [9] 0.077 | IRAK-1-4 Inhibitor I 0.069 | ibrutinib 0.023 | [10] -0.022 | ralimetinib -0.188 | [11] 0.032 | [12] -0.072 | [13] 0.077 | pinometostat -0.046 | [14] 0.059 | [15] 0.025

UQCRB (UniProt P14927)
inactive: erlotinib 0.002 | [1] 0.002 | [2] 0.019 | [3] 0.001 | [4] -0.006 | [5] 0.034 | [6] -0.014 | [7] -0.012 | [8] 0.008 | [9] 0.018 | IRAK-1-4 Inhibitor I 0.042 | ibrutinib -0.01 | [10] -0.023 | ralimetinib -0.055 | [11] -0.008 | [12] 0.073 | [13] -0.012 | pinometostat -0.069 | [14] 0.001 | [15] 0.036

USP39 (UniProt Q53GS9)
inactive: erlotinib -0.019 | [1] -0.03 | [2] -0.105 | [3] -0.017 | [4] -0.014 | [5] -0.003 | [6] -0.05 | [7] 0.004 | [8] 0.007 | [9] -0.026 | IRAK-1-4 Inhibitor I -0.015 | ibrutinib -0.008 | [10] -0.061 | ralimetinib 0.023 | [11] 0.046 | [12] 0.1 | [13] 0.04 | pinometostat 0.081 | [14] -0.011 | [15] 0.076

VAMP4 (UniProt O75379)
inactive: erlotinib 0.025 | [1] -0.011 | [2] 0 | [3] -0.031 | [4] 0 | [5] 0.048 | [6] 0.017 | [7] -0.033 | [8] -0.003 | [9] 0.081 | IRAK-1-4 Inhibitor I 0.04 | ibrutinib 0.024 | [10] 0.034 | ralimetinib -0.081 | [11] 0.007 | [12] -0.012 | [13] 0.041 | pinometostat -0.006 | [14] -0.024 | [15] -0.058

2 records drawn at random from those above, as already listed:
VAT1 (UniProt Q99536)
inactive: erlotinib -0.003 | [1] 0.013 | [2] 0.02 | [3] -0.019 | [4] 0.055 | [5] -0.013 | [6] 0.064 | [7] -0.038 | [8] 0.008 | [9] 0.064 | IRAK-1-4 Inhibitor I 0.021 | ibrutinib 0.071 | [10] -0.035 | ralimetinib -0.013 | [11] 0.081 | [12] 0.107 | [13] -0.028 | pinometostat -0.058 | [14] -0.012 | [15] -0.003

UQCC2 (UniProt Q9BRT2)
inactive: erlotinib 0.016 | [1] 0.001 | [2] 0.043 | [3] 0.008 | [4] 0.121 | [5] 0.024 | [6] -0.134 | [7] 0.045 | [8] -0.15 | [9] 0.077 | IRAK-1-4 Inhibitor I 0.069 | ibrutinib 0.023 | [10] -0.022 | ralimetinib -0.188 | [11] 0.032 | [12] -0.072 | [13] 0.077 | pinometostat -0.046 | [14] 0.059 | [15] 0.025

(list continues)

VAPB (UniProt O95292)
inactive: erlotinib -0.002 | [1] 0.03 | [2] 0.119 | [3] -0.004 | [4] -0.044 | [5] 0.007 | [6] -0.036 | [7] 0.005 | [8] -0.003 | [9] 0.041 | IRAK-1-4 Inhibitor I 0.004 | ibrutinib 0.015 | [10] -0.007 | ralimetinib -0.135 | [11] -0.003 | [12] 0.045 | [13] 0.07 | pinometostat -0.044 | [14] -0.008 | [15] 0.007

UFSP2 (UniProt Q9NUQ7)
inactive: erlotinib 0.035 | [1] 0.103 | [2] -0.028 | [3] 0.005 | [4] 0.028 | [5] 0.004 | [6] -0.015 | [7] -0.008 | [8] 0.019 | [9] 0.009 | IRAK-1-4 Inhibitor I 0.034 | ibrutinib -0.021 | [10] -0.092 | ralimetinib -0.018 | [11] -0.057 | [12] 0.046 | [13] 0.065 | pinometostat 0.037 | [14] -0.045 | [15] 0.041

URGCP (UniProt Q8TCY9)
inactive: erlotinib 0.076 | [1] -0.013 | [2] -0.07 | [3] 0.025 | [4] 0.076 | [5] -0.074 | [6] 0.068 | [7] -0.095 | [8] 0.077 | [9] 0.042 | IRAK-1-4 Inhibitor I -0.037 | ibrutinib 0.01 | [10] 0.004 | ralimetinib 0.164 | [11] -0.084 | [12] -0.024 | [13] 0.072 | pinometostat 0.078 | [14] -0.008 | [15] -0.128

USP19 isoform 6 (UniProt O94966)
inactive: erlotinib 0.002 | [1] 0.073 | [2] 0.055 | [3] 0.021 | [4] 0.025 | [5] 0.006 | [6] -0.038 | [7] -0.016 | [8] -0.019 | [9] 0.018 | IRAK-1-4 Inhibitor I 0.031 | ibrutinib -0.02 | [10] -0.013 | ralimetinib -0.006 | [11] -0.038 | [12] -0.006 | [13] 0.008 | pinometostat -0.025 | [14] 0 | [15] 0.02
